Where a chain is given by its changes, count along the chain named. Results are given in words; binding and its absence hold for the method and conditions named. Binding seen in cells or lysates may run through a third protein. For some assays here: Binding calls can cover weak binding; strength is not graded here. Tags and fused reporters may be left off the sequences shown.

One assay has as its target T1, FLAG-tagged B14 (F-B14) (UniProt Q8TBM8).
T1 sequence: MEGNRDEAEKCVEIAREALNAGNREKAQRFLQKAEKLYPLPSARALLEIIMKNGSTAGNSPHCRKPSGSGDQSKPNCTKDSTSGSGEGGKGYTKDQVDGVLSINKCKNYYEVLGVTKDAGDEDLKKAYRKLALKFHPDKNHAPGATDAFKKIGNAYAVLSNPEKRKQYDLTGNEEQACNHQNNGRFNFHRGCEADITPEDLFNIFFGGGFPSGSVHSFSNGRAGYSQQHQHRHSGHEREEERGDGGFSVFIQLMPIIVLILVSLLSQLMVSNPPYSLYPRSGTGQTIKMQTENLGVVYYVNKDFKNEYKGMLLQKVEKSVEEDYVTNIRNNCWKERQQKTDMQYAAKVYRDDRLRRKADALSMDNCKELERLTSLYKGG
Kind of assay: co-IP; CV-1 cells expressing FLAG-tagged B14 constructs cross-linked with 2 mM DSP, lysed in 1% Triton X-100 in TSEp buffer; anti-FLAG agarose, 2 h at 4°C; immunoblot. A general note: In western blotting, separated proteins are transferred to a membrane and probed.

Assay [1] addresses T2, FLAG-tagged H136Q B14 (F-B14 H136Q) (UniProt Q8TBM8).
T2 sequence: T1 sequence with H136Q
Described as above.

Assay [2] concerns the target T3, S-tagged HspBP1 (HspBP1-S) (human) (UniProt Q9NZL4).
T3 sequence: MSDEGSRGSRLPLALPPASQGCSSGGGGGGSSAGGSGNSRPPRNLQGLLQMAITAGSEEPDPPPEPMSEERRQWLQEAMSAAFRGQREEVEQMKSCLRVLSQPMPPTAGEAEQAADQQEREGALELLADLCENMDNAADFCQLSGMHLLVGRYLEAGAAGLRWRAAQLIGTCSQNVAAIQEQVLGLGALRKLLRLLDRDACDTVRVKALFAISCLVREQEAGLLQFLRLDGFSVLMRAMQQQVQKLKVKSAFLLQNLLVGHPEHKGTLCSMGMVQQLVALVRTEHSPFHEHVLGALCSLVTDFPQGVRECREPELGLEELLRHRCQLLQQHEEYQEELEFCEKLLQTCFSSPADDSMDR
Description: pull-down; S-tagged proteins affinity purified on S tag protein-conjugated agarose from CV-1 whole cell extract (TSEp buffer with 0.2% digitonin), 2 h at 4°C; immunoblot; cells uninfected (Fig 1H) or infected with SV40 MOI ~10 for 2, 8 or 12 h (Fig 5B, 5C).

In the case of “Hsc70 (endogenous, CV-1 cells) (simian (endogenous in CV-1))”, the binding result is on record as “binds” with FLAG-tagged B14 (F-B14), “no binding” in assay [1] and “binds” in assay [2].

For the substance “Hsp105 (endogenous, CV-1 cells) (simian (endogenous in CV-1))”, the binding result with FLAG-tagged B14 (F-B14) was “binds”; in assay [1], “no binding”.

The values are drawn from PMC4526233.
